Results are given in words; binding and its absence hold for the method and conditions named. Binding seen in cells or lysates may run through a third protein. These calls come from enrichment with a bait or labelling near it, and not all partners need be listed. Where a sequence is shown, tags or fusion partners need not be part of it.

In this assay the target is FLAG-HA-iASPP (stably expressed in HeLa cells) (UniProt Q8WUF5). As to the kind of experiment: affinity purification with mass spectrometry; tandem affinity purification from HeLa cells stably expressing the FLAG-HA-tagged bait (iASPP or CEP55): lysis in BC100 buffer (20 mM Tris-Cl pH 7.9, 100 mM NaCl, 0.2 mM EDTA, 20% glycerol) with 0.2% Triton X-100; anti-FLAG M2 agarose, FLAG peptide elution, then anti-HA agarose, HA peptide elution; SDS-PAGE, gel bands sequenced by LC-MS/MS.

B1: golgin84 (Golgi apparatus protein), endogenous (protein, UniProt Q8TBA6 1-731)
chain: MSWFVDLAGKAEDLLNRVDQGAATALSRKDNASNIYSKNTDYTELHQQNTDLIYQTGPKSTYISSAADNIRNQKATILAGTANVKVGSRTPVEASHPVENASVPRPSSHFVRRKKSEPDDELLFDFLNSSQKEPTGRVEIRKEKGKTPVFQSSQTSSVSSVNPSVTTIKTIEENSFGSQTHEAASNSDSSHEGQEESSKENVSSNAACPDHTPTPNDDGKSHELSNLRLENQLLRNEVQSLNQEMASLLQRSKETQEELNKARARVEKWNADHSKSDRMTRGLRAQVDDLTEAVAAKDSQLAVLKVRLQEADQLLSTRTEALEALQSEKSRIMQDQSEGNSLQNQALQTFQERLHEADATLKREQESYKQMQSEFAARLNKVEMERQNLAEAITLAERKYSDEKKRVDELQQQVKLYKLNLESSKQELIDYKQKATRILQSKEKLINSLKEGSGFEGLDSSTASSMELEELRHEKEMQREEIQKLMGQIHQLRSELQDMEAQQVNEAESAREQLQDLHDQIAGQKASKQELETELERLKQEFHYIEEDLYRTKNTLQSRIKDRDEEIQKLRNQLTNKTLSNSSQSELENRLHQLTETLIQKQTMLESLSTEKNSLVFQLERLEQQMNSASGSSSNGSSINMSGIDNGEGTRLRNVPVLFNDTETNLAGMYGKVRKAASSIDQFSIRLGIFLRRYPIARVFVIIYMALLHLWVMIVLLTYTPEMHHDQPYGK
Take B1: the binding result is listed as “binds”.

B2: NFKB2 (NF-κB subunit), endogenous (protein, UniProt Q00653 1-900)
chain: MESCYNPGLDGIIEYDDFKLNSSIVEPKEPAPETADGPYLVIVEQPKQRGFRFRYGCEGPSHGGLPGASSEKGRKTYPTVKICNYEGPAKIEVDLVTHSDPPRAHAHSLVGKQCSELGICAVSVGPKDMTAQFNNLGVLHVTKKNMMGTMIQKLQRQRLRSRPQGLTEAEQRELEQEAKELKKVMDLSIVRLRFSAFLRASDGSFSLPLKPVISQPIHDSKSPGASNLKISRMDKTAGSVRGGDEVYLLCDKVQKDDIEVRFYEDDENGWQAFGDFSPTDVHKQYAIVFRTPPYHKMKIERPVTVFLQLKRKRGGDVSDSKQFTYYPLVEDKEEVQRKRRKALPTFSQPFGGGSHMGGGSGGAAGGYGGAGGGGSLGFFPSSLAYSPYQSGAGPMGCYPGGGGGAQMAATVPSRDSGEEAAEPSAPSRTPQCEPQAPEMLQRAREYNARLFGLAQRSARALLDYGVTADARALLAGQRHLLTAQDENGDTPLHLAIIHGQTSVIEQIVYVIHHAQDLGVVNLTNHLHQTPLHLAVITGQTSVVSFLLRVGADPALLDRHGDSAMHLALRAGAGAPELLRALLQSGAPAVPQLLHMPDFEGLYPVHLAVRARSPECLDLLVDSGAEVEATERQGGRTALHLATEMEELGLVTHLVTKLRANVNARTFAGNTPLHLAAGLGYPTLTRLLLKAGADIHAENEEPLCPLPSPPTSDSDSDSEGPEKDTRSSFRGHTPLDLTCSTKVKTLLLNAAQNTMEPPLTPPSPAGPGLSLGDTALQNLEQLLDGPEAQGSWAELAERLGLRSLVDTYRQTTSPSGSLLRSYELAGGDLAGLLEALSDMGLEEGVRLLRGPETRDKLPSTAEVKEDSAYGSQSVEQEAEKLGPPPEPPGGLCHGHPQPQVH
Take B2: the binding entry is “binds”.

(Values after PMC5943338.)
